Among the data in the supplement of paper PMC10849652 are log2 fold change values, retold here.

By UniProt entry, the sequences of proteins in these tests, tags left out. Where a name states a change or a piece, a line headed by the entry shows the natural chain unless it says otherwise.
UniProt P11474: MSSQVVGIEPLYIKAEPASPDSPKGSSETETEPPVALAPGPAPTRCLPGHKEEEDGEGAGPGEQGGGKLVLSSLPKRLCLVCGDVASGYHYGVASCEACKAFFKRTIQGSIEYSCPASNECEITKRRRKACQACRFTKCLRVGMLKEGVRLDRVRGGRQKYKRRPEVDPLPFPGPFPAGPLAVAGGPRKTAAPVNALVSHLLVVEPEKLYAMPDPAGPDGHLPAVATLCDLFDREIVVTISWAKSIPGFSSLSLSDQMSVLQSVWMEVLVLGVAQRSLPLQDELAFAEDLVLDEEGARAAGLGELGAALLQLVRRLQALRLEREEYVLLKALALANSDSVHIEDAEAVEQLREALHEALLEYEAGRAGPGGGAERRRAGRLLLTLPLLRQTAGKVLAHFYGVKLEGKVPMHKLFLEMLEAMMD
UniProt Q5XKK7: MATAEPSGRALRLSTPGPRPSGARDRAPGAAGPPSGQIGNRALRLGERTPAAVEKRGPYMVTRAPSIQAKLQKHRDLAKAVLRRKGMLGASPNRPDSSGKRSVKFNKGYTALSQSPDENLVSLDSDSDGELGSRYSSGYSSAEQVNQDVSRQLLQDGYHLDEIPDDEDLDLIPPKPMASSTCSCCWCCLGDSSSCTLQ
UniProt Q9P2D6: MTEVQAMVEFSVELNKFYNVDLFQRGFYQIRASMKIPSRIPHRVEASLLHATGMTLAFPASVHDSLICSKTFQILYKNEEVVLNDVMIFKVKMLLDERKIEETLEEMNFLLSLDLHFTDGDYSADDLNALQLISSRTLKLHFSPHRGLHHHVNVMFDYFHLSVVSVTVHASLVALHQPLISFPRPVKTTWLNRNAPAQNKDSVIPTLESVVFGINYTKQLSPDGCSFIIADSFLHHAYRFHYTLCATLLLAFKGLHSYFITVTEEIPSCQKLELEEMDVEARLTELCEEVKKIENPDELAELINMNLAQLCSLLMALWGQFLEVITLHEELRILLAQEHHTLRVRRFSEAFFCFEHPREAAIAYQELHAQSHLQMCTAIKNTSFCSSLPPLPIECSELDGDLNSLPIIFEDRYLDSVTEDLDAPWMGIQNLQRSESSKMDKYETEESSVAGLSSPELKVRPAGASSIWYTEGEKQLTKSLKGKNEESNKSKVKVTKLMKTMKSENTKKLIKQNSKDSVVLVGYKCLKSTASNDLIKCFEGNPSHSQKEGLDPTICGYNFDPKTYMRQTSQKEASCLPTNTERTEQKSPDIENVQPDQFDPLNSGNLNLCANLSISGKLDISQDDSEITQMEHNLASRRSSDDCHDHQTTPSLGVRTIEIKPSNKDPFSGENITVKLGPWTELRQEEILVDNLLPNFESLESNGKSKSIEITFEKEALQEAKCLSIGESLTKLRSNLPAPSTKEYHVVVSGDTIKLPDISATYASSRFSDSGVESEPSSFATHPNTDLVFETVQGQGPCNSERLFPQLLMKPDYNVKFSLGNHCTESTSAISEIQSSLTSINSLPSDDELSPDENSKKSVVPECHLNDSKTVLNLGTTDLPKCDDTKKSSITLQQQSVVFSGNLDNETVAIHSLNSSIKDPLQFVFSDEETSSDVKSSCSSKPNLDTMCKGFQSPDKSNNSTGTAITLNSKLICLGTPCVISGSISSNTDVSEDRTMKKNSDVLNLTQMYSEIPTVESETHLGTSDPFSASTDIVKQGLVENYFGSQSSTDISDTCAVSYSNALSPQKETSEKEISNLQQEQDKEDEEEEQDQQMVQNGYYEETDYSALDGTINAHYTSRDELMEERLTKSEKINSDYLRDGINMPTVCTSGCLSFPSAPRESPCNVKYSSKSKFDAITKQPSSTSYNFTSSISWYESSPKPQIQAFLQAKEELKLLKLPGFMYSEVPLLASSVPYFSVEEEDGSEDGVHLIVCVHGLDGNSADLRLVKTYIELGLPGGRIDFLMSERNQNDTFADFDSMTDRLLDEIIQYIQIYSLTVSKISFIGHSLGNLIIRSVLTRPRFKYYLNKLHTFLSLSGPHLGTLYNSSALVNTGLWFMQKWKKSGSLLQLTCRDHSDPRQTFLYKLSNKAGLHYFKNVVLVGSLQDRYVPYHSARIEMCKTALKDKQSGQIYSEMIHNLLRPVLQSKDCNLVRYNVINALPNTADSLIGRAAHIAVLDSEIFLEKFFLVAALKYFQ
UniProt Q8IXR5: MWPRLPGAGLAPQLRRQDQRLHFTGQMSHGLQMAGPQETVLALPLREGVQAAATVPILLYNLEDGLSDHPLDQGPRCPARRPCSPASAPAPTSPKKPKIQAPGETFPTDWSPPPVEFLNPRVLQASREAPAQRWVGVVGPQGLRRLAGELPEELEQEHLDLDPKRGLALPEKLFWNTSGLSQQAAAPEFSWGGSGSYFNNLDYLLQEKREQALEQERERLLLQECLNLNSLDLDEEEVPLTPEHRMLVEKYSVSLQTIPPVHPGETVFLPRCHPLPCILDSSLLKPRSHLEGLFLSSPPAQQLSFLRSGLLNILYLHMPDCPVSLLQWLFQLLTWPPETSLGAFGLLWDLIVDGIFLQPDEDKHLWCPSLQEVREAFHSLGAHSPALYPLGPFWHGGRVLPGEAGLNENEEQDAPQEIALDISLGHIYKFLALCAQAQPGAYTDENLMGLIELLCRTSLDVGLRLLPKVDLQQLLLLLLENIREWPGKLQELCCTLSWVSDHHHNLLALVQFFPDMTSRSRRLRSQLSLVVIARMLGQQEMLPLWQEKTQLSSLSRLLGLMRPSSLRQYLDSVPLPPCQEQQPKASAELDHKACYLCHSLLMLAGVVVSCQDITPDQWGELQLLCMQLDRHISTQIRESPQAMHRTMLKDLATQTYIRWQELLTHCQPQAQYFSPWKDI
UniProt Q6NZ36: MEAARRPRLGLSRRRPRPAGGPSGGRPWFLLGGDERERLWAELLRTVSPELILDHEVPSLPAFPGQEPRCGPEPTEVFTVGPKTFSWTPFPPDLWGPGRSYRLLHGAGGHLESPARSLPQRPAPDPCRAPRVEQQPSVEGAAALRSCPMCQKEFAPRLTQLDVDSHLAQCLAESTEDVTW
UniProt P41162: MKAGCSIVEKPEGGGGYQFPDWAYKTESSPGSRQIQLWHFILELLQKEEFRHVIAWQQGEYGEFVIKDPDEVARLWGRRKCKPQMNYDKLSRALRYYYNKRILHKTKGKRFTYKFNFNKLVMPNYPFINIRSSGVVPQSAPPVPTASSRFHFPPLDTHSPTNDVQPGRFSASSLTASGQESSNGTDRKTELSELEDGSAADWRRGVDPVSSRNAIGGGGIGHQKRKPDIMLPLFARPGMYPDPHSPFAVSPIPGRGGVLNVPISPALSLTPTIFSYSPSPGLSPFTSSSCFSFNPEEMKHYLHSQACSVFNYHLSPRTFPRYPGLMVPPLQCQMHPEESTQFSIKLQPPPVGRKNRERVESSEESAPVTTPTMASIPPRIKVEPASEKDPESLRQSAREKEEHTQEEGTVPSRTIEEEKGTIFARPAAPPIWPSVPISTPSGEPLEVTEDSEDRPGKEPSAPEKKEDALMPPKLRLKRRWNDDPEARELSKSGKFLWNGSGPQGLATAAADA
UniProt P25116: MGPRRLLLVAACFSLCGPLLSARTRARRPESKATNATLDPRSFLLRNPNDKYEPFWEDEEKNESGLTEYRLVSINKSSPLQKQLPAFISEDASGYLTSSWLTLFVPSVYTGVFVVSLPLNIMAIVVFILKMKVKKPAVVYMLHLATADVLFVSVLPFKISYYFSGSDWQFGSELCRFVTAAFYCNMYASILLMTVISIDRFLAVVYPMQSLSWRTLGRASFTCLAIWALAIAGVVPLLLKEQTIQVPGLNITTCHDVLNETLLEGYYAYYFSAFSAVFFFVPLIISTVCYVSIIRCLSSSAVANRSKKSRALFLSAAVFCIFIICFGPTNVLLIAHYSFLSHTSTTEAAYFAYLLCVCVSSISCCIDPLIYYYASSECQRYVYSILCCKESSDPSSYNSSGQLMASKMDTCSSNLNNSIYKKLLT
UniProt Q9H790: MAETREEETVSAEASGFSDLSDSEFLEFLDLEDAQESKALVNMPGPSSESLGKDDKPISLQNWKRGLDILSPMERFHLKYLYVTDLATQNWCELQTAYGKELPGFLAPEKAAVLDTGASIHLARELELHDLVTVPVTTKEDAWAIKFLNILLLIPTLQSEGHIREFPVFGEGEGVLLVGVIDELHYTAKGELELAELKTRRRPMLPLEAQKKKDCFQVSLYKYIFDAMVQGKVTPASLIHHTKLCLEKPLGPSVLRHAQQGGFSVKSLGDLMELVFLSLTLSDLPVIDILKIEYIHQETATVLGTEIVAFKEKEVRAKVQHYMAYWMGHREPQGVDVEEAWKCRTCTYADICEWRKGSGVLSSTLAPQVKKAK
UniProt O75460: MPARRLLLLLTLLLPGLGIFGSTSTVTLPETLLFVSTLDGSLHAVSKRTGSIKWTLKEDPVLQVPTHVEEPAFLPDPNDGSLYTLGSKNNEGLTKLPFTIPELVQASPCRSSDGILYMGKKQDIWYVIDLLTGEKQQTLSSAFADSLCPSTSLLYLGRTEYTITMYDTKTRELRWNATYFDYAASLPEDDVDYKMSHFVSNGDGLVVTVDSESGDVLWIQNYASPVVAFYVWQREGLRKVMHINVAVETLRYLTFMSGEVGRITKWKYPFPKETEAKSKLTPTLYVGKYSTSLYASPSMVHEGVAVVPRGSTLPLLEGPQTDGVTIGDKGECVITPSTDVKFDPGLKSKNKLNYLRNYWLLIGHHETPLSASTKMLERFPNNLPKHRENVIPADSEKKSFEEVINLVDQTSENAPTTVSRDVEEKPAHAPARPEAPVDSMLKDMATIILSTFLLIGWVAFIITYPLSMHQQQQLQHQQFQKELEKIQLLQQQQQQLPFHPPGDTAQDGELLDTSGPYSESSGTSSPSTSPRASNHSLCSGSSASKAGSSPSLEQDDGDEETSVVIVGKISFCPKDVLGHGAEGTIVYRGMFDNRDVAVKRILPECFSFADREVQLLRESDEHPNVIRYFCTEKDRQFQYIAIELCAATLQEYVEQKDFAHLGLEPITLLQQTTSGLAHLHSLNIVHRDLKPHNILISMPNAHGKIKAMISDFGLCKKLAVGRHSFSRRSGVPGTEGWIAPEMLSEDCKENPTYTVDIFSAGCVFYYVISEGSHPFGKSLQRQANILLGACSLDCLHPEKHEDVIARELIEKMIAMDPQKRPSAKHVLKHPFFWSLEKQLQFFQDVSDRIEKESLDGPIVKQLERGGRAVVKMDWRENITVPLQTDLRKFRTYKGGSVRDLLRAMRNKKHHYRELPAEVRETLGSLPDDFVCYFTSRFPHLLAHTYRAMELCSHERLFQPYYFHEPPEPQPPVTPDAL
UniProt Q9Y2D4: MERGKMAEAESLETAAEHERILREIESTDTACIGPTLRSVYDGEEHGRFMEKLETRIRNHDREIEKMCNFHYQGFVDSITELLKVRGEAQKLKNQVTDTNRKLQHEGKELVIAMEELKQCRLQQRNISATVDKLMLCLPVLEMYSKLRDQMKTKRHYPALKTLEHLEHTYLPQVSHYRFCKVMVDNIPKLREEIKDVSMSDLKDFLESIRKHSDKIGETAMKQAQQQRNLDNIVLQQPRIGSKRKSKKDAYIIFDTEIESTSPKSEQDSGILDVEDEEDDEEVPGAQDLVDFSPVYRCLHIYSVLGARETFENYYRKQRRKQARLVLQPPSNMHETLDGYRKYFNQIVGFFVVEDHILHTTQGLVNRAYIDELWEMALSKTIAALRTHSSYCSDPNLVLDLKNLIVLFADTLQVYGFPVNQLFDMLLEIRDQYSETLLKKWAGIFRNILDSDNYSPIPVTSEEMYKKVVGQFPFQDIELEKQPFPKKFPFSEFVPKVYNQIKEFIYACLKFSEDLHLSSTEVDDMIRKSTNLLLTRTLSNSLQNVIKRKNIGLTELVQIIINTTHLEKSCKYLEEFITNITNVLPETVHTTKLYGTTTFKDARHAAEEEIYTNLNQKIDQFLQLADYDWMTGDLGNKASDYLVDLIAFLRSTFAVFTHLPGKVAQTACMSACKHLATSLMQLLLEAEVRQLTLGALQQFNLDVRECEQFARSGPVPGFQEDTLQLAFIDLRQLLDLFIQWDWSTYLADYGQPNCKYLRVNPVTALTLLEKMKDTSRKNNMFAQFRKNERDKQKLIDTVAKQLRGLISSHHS
UniProt Q9BVV8: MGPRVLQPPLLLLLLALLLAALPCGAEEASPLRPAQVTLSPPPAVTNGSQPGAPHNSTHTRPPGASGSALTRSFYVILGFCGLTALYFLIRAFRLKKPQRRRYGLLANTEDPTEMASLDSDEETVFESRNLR

The list shows a part of the results.

What all share (experiment): log2 fold change, soluble protein after heating vs DMSO (PISA); higher = thermal stabilisation; K562 lysate, 10 uM; active = over 0.2 and 3.5 SD of the protein, either way, in both replicates (recomputed)
Compound in assay [1]: NCC(=O)Nc1ccc(-n2nc(C(F)(F)F)cc2-c2ccc3c(ccc4ccccc43)c2)cc1
An outline of the steps:
(§1)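 Dounce homogenisation of K562 pellets in PBS pH 7.4 with 1 mM MgCl2 produced a crude extract, used at 1 mg/mL protein. Exposure to 10 μM compound lasted 30 min, and aliquots were then heated for 3 min across 48°C-58°C, pooled and brought to 0.5% NP-40 at 4°C. The supernatant after 21,000xg for 90 min was quantified by TMTpro 16plex LC-MS/MS with channel sums equalised. Duplicate values are given as log-two fold change in thermal stability relative to solvent controls.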

Compound in another assay: c1cn2cc(-c3ccc4cn[nH]c4c3)nc(Nc3ccc(N4CCOCC4)cc3)c2n1 [entospletinib]
Put shortly: as §1

Compound in a further assay: O=C(O)c1ccc2c(c1)nc(Nc1cccc(Cl)c1)c1ccncc12 [silmitasertib]
An outline of the steps:
as §1

Compound in assay [2]: O=C1NC(=O)C(c2cnc3ccccn23)=C1c1cn2c3c(cc(F)cc13)CN(C(=O)N1CCCCC1)CC2
An outline of the steps: as §1

Compound in another assay: O=C(CCCCCCC(=O)Nc1ccccc1)NO [vorinostat]
Put shortly: as §1

Turning to ETV5 isoform 2 (UniProt P41161), the log2 fold change in assay [1] is inactive: 0.017; with entospletinib it was inactive: 0.047.

ESRRA (UniProt P11474): the log2 fold change in assay [1] was inactive: -0.094; with silmitasertib it was inactive: 0.063; in assay [2], inactive: 0.026; in the assay with entospletinib it was inactive: -0.034.

Take FAM219B (UniProt Q5XKK7): the log2 fold change in assay [2] was inactive: 0.224.

As to FAM135A (UniProt Q9P2D6), the log2 fold change in assay [2] was inactive: 0.036.

As for FAM120A, A0A494C0Y9, the log2 fold change in the assay with vorinostat is inactive: -0.071; with silmitasertib, inactive: -0.075.

For FAM178B (UniProt Q8IXR5), the log2 fold change in assay [2] is inactive: 0.082; in the assay with entospletinib, inactive: -0.106.

On to FAAP20 isoform 2 (UniProt Q6NZ36), for which the log2 fold change in assay [2] was inactive: 0.14.

For the target ETV3 (UniProt P41162), the log2 fold change with entospletinib was inactive: -0.054.

On to F2R (UniProt P25116), for which the log2 fold change in assay [2] is inactive: 0.011.

With EXO5 (UniProt Q9H790), the results for the log2 fold change (with vorinostat; with silmitasertib; in assay [2]) were inactive: 0.043, inactive: -0.06 and inactive: 0.054, respectively.

Take ERN1 (UniProt O75460): the log2 fold change is inactive: -0.387 in the assay with vorinostat, inactive: 0.048 in the assay with silmitasertib and inactive: -0.045 with entospletinib.

ERV3-1 (UniProt Q14264): the log2 fold change was inactive: 0.047 in the assay with vorinostat, inactive: -0.083 with silmitasertib, inactive: -0.04 in assay [2] and inactive: 0.229 with entospletinib.

Turning to EXOC6B (UniProt Q9Y2D4), the log2 fold change in assay [1] is inactive: -0.041; in assay [2] it was inactive: -0.012; with entospletinib, inactive: 0.166.

As for F2 (UniProt P00734), in the assay with entospletinib, the log2 fold change is inactive: 0.042.

Take FAM174C (UniProt Q9BVV8): the log2 fold change with vorinostat was inactive: 0.322; with silmitasertib, inactive: 0.154.

Turning to FAM171A2 (UniProt A8MVW0), the log2 fold change with vorinostat was inactive: -0.031; in the assay with silmitasertib it was inactive: -0.042.

With FAM49B, A0A1W2PRQ0, the log2 fold change in assay [1] is inactive: 0.19; with entospletinib, inactive: 0.13.

Take FAM172A (UniProt Q8WUF8): the log2 fold change in assay [1] is inactive: 0.063; with vorinostat, inactive: 0.175; in the assay with silmitasertib it was inactive: -0.084; with entospletinib, inactive: 0.044.
